For the experiment, the target named is T1, AG73, synthetic peptide based on the laminin-α1 chain.
T1 sequence (peptide): RKRLQVQLSIRT
The experiment in a line: ELISA; solid-phase assay: AG73 dried onto 96-well plates (100 ug/ml in H2O), blocked with 3% heat-denatured BSA, MDA-231 cell lysate (2 mg/ml) in 3% BSA overnight at 4°C; bound Sdc detected with anti-Sdc antibodies and HRP secondary, 450 nm; also with lysates of NS1, NS2 and Sdc 2 KD cells; inhibited by heparin (20 mg/ml) and by trypsin pretreatment of the cells; only the target purified. Background: An ELISA detects its analyte on a solid surface through an enzyme-linked reagent.

This note sets out measurements from article PMC6515157.

Results are given in words; binding and its absence hold for the method and conditions named. Some entries that bind do so weakly or less than the wild type.

B1: syndecan 1 (receptor, UniProt P18827 23-310)
chain: QIVATNLPPEDQDGSGDDSDNFSGSGAGALQDITLSQQTPSTWKDTQLLTAIPTSPEPTGLEATAASTSTLPAGEGPKEGEAVVLPEVEPGLTAREQEATPRPRETTQLPTTHLASTTTATTAQEPATSHPHRDMQPGHHETSTPAGPSQADLHTPHTEDGGPSATERAAEDGASSQLPAAEGSGEQDFTFETSGENTAVVAVEPDRRNQSPVDQGATGASQGLLDRKEVLGGVIAGGLVGLIFAVCLVGFMLYRMKKKDEGSYSLEEPKQANGGAYQKPTKQEEFYA
With B1, the binding result is listed as “binds”.

B2: syndecan 4 (receptor, UniProt P31431 19-198)
chain: ESIRETEVIDPQDLLEGRYFSGALPDDEDVVGPGQESDDFELSGSGDLDDLEDSMIGPEVVHPLVPLDNHIPERAGSGSQVPTEPKKLEENEVIPKRISPVEESEDVSNKVSMSSTVQGSNIFERTEVLAALIVGGIVGILFAVFLILLLMYRMKKKDEGSYDLGKKPIYKKAPTNEFYA
On to B2, for which the binding entry is “binds”.
